Measured values from patent EP1131073B1, “USE OF STAUROSPORINE DERIVATIVES FOR TREATING OCULAR NEOVASCULAR DISEASES” (Novartis AG, priority 1998, dated 2000).

Test system: retinal neovascularization
Assay: Oxygen-induced ischemic retinopathy in mice, lectin-stained retinal sections with image analysis
Format: in vivo, C57/BL6J mice
Conditions: 600 mg/kg once a day for 5 days
Description: Ischemic retinopathy is produced in C57/BL6J mice by a method described by Smith et al., Oxygen-induced Retinopathy in the Mouse, Invest. Ophthalmol. Vis. Sci. 35, 101-111 (1994). Seven-day-old mice and their mothers are placed in an airtight incubator and exposed to an atmosphere of 75 ± 3% oxygen for 5 days. Incubator temperature is maintained at 23 ± 2°C, and oxygen is measured every 8 hours with an oxygen analyzer. After 5 days, the mice are removed from the incubator, placed in room air, and subjected to a drug treatment. N-benzoyl-staurosporine (NBS) is dissolved in dimethyl sulfoxide (DMSO) and diluted to final concentrations with water; the maximum concentration of DMSO is 1%. Vehicle (1% DMSO) or vehicle containing various concentrations of the drug (volume = 10 µl per gram body weight) is placed in the stomach by gavage. Different mice are given 60, 300 or 600 mg of NBS per kg of body weight. As a control, a group of mice are given the vehicle without NBS. […]
To perform quantitative assessments, 10 µm serial sections are cut through half of each eye and sections roughly 50-60 µm apart are stained with lectin, providing 13 sections per eye for analysis. […] Image-Pro Plus software (Media Cybernetics, Silver Spring, MD) is used to delineate lectin-stained cells on the surface of the retina and their area is measured. […]

SMILES: CO[C@@H]1[C@H](N(C)C(=O)c2ccccc2)C[C@H]2O[C@]1(C)n1c3ccccc3c3c4c(c5c6ccccc6n2c5c31)C(=O)NC4 [NBS, N-benzoyl-staurosporine]
- inhibition of neovascularization (endothelial cells on the surface of the retina, high magnification): complete inhibition
